# Assay results from publication PMC10154249, “Unique progerin C-terminal peptide ameliorates Hutchinson–Gilford progeria syndrome phenotype by rescuing BUBR1” (Nature Aging, 2023).
# The chains behind the UniProt entries cited, without tags or fusion partners. Where a name states a change or a piece, a line headed by the entry shows the natural chain unless it says otherwise. A line that says so, or that is headed by a name, gives the form on record, which may keep a tag or linker.
# Flag-progerin (HEK-293T) (P02545, form named): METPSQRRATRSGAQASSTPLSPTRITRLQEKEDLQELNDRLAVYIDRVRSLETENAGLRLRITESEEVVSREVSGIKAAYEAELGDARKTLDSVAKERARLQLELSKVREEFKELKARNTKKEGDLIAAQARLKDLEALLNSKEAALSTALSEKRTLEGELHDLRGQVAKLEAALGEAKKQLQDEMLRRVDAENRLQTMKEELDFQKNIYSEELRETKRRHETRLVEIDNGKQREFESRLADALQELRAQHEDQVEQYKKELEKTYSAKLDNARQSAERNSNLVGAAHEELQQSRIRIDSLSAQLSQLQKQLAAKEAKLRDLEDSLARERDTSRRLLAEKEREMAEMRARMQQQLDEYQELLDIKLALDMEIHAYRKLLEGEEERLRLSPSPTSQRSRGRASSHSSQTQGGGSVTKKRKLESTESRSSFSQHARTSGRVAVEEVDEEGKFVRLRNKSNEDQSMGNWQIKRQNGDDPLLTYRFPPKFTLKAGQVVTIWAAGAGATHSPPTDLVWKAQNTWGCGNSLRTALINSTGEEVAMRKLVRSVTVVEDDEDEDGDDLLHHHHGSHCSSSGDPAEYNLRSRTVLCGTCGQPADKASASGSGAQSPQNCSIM
# UniProt P26641: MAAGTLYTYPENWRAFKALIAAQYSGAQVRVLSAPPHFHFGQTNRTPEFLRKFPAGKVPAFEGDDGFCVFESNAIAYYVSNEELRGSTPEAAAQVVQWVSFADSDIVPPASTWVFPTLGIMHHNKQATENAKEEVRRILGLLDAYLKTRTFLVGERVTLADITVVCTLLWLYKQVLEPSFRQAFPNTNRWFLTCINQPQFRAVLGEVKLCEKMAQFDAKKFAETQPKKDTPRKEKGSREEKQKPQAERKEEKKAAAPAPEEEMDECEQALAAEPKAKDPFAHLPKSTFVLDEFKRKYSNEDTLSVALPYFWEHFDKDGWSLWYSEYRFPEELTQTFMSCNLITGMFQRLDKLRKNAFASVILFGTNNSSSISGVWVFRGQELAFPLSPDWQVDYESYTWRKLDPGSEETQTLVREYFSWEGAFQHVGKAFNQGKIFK
# UniProt P26599: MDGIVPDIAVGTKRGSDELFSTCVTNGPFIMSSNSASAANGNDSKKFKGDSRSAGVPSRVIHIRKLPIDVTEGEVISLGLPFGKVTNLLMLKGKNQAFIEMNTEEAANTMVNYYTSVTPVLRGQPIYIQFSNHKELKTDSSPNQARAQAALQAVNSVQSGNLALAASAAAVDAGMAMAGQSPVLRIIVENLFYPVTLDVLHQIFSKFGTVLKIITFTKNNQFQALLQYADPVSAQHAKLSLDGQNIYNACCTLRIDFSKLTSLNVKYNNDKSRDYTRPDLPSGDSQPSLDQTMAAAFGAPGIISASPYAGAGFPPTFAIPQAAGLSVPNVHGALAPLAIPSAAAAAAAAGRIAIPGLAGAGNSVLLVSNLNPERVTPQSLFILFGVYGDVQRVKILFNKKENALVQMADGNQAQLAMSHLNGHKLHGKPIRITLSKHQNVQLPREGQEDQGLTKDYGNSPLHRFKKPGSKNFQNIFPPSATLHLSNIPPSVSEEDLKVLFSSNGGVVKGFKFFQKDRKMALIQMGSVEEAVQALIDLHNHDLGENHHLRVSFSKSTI
# No constants are given. Whether binding was seen depends on the method and setting. In cells and extracts the contact can be indirect. A yes stands for co-enrichment or nearness to the bait. Other partners may have been found.
# Target: Flag-progerin (HEK-293T) (human) (UniProt P02545)
# Assay: affinity purification with mass spectrometry; Flag-tagged progerin transfected into HEK-293T cells, captured on anti-Flag affinity gel 16 h at 4 °C, washed with 50 mM Tris-HCl pH 7.4, 150 mM NaCl; SDS–PAGE, LC–MS/MS
row,Substance,binding
1,EF1γ (from UniProt P26641 1-437),binds
2,"PTBP1 (endogenous, HEK-293T) (from UniProt P26599 1-557)",binds
